# Measurements published in the supplement of paper PMC12823440, “Inhibitors supercharge kinase turnover through native proteolytic circuits” (Nature, 2025).
# Chains of the proteins cited; added tags and fusions are not shown. Lines headed by an entry give the natural chain unless they say otherwise; changes in a name come on top.
# UniProt Q01974, whole entry: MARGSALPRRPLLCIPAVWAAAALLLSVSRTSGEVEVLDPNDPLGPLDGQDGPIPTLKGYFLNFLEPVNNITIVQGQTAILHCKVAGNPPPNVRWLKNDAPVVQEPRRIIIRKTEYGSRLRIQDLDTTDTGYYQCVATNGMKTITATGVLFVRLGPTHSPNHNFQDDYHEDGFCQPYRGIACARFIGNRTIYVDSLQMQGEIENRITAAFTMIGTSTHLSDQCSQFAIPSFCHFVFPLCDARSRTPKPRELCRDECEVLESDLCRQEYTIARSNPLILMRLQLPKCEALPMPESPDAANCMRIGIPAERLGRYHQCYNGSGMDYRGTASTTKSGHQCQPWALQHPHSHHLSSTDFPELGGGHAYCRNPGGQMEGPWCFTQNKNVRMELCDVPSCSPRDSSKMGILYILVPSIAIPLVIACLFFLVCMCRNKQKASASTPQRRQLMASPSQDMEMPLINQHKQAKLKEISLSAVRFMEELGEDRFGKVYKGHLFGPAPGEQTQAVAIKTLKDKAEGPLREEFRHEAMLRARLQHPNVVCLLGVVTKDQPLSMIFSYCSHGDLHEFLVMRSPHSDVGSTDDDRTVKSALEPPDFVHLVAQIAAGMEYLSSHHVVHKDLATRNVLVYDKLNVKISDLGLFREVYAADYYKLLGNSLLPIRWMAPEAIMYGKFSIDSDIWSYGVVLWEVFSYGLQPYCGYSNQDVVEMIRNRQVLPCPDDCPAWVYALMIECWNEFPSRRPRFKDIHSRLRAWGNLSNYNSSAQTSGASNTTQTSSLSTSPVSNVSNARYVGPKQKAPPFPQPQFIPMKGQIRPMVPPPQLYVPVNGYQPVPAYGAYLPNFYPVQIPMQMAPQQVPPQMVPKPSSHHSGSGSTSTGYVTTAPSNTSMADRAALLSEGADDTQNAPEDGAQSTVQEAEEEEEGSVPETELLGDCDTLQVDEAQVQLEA
# UniProt Q15418, whole entry: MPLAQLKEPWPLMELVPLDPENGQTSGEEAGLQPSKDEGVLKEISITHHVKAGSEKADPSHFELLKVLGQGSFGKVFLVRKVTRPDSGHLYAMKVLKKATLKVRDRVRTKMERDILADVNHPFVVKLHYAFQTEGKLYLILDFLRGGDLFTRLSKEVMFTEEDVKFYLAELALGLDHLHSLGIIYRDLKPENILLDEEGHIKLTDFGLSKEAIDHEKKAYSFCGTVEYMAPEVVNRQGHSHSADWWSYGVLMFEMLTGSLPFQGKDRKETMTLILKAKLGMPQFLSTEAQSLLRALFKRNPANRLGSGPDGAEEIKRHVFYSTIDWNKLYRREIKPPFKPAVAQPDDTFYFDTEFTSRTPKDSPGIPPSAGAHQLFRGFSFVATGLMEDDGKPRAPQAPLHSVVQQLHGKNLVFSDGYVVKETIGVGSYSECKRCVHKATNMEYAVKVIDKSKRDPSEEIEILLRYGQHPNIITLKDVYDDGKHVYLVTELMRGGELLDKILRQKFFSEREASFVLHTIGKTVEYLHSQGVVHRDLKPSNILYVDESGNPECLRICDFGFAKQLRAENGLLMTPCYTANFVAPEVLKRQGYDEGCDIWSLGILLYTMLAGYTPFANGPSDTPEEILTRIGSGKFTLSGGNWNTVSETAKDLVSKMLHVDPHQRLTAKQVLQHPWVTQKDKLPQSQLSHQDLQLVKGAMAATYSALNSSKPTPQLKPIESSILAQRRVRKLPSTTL
# UniProt Q9Y6E0: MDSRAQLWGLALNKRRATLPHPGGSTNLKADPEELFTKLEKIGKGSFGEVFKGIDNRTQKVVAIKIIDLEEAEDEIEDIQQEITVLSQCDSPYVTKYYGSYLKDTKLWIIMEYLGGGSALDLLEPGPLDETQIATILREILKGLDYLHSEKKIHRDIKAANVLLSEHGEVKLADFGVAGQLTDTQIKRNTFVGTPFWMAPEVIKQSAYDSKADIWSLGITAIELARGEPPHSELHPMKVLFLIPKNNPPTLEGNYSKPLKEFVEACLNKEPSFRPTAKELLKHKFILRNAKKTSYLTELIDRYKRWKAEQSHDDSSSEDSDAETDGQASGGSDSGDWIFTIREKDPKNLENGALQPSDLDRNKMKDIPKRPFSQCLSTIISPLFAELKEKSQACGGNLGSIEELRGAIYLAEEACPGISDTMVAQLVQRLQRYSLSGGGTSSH
# UniProt Q15208: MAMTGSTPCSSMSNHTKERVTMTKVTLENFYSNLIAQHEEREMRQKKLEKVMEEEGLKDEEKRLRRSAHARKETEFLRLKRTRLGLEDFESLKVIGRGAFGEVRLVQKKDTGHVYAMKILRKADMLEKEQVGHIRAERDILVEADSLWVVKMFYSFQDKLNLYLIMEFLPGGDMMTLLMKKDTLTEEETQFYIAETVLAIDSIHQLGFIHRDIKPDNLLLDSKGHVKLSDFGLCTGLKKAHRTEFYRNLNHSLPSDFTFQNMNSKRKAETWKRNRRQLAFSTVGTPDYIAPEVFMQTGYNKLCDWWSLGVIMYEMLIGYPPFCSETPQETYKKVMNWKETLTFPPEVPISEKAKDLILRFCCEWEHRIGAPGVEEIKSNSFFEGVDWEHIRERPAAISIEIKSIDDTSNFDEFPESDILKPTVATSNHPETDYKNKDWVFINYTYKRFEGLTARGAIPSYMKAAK
# UniProt P29597: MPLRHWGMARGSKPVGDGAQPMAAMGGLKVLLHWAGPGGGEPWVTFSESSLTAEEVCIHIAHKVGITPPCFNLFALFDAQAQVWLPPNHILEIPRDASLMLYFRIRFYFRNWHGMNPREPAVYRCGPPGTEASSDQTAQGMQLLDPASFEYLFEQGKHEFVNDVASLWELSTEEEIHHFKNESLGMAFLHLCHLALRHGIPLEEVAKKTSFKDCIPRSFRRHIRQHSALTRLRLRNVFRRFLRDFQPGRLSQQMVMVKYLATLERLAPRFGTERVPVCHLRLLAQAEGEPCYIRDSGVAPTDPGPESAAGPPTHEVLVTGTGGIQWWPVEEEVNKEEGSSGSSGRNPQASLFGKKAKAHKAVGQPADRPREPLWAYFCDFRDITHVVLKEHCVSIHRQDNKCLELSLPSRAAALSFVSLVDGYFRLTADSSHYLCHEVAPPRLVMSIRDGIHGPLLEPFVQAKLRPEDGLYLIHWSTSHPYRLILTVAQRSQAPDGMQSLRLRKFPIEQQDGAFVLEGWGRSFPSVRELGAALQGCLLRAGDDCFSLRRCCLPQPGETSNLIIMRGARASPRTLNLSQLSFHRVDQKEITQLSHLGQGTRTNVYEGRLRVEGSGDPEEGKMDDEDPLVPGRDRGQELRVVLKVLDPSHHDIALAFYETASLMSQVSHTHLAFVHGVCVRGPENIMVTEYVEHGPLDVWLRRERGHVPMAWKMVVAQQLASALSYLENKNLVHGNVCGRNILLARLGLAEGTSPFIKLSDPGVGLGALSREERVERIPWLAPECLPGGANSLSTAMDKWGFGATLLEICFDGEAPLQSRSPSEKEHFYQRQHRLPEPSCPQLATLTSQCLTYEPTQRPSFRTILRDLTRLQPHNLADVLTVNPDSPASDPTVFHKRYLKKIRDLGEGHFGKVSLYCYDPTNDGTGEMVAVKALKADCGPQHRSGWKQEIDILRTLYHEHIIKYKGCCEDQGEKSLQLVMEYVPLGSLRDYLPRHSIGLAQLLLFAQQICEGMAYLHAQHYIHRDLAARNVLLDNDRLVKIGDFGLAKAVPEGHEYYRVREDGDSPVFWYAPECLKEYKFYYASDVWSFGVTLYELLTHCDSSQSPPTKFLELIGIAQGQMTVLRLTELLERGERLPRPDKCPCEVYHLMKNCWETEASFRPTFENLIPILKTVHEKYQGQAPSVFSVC
# UniProt Q6PHR2: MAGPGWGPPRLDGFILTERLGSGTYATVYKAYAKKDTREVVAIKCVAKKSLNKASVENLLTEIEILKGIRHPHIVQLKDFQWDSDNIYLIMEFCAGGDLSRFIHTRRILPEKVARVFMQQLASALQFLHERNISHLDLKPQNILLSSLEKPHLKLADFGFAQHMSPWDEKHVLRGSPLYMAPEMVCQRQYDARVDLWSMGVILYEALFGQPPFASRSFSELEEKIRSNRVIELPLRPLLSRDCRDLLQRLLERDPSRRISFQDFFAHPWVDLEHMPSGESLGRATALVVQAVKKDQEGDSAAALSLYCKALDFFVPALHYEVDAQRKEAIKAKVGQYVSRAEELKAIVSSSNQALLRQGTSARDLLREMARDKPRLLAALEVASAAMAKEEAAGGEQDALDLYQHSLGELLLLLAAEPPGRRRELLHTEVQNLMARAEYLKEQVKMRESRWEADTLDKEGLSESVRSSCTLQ
# UniProt P07947, whole entry, looked up: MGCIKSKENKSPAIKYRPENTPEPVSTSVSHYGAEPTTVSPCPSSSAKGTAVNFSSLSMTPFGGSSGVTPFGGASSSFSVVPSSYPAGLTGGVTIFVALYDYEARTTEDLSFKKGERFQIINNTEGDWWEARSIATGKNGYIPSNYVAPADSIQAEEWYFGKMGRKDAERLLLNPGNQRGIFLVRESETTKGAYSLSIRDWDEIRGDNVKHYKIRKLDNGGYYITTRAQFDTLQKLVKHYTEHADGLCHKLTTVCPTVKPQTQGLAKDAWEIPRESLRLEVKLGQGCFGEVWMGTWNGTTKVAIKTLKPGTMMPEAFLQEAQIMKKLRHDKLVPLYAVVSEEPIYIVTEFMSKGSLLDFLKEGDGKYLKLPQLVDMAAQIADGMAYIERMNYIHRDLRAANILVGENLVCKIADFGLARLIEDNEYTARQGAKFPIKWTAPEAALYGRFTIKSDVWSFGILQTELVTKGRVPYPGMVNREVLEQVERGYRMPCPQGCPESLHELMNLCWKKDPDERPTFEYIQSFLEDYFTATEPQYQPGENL
# UniProt P43403: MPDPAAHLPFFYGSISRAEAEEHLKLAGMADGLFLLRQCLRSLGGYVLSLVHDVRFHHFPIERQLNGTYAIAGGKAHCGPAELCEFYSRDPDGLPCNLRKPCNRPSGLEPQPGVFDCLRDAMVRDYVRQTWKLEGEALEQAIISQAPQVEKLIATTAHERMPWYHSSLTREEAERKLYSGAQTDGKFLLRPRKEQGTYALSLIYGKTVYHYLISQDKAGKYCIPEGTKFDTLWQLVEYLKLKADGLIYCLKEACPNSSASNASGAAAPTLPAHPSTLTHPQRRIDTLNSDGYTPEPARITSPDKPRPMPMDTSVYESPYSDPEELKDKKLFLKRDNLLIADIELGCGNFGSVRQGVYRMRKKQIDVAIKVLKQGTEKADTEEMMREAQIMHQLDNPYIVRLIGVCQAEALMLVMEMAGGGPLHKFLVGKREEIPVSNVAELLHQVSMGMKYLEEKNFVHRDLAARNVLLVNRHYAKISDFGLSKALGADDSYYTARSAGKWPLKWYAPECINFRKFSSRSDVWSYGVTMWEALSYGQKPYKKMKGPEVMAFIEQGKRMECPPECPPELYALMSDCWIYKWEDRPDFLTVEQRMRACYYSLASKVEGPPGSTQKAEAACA
# UniProt P11802: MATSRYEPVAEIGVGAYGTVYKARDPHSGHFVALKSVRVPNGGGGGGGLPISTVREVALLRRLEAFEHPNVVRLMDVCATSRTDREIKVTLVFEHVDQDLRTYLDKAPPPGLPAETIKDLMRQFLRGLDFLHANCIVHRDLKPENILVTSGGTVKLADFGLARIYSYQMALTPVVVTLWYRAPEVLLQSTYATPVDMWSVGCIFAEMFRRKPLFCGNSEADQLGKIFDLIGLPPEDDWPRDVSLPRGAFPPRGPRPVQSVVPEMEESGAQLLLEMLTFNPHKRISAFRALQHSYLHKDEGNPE
# UniProt P50613: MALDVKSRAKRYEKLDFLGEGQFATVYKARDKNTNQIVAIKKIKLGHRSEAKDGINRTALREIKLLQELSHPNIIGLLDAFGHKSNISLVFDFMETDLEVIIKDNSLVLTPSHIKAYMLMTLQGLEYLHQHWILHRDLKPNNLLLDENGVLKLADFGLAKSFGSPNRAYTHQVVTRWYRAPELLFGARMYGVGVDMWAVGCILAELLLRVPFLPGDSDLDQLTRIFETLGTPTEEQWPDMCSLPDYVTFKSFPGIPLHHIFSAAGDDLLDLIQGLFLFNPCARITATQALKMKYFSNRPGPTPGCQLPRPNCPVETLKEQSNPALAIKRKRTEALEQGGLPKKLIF
# UniProt P50750, whole entry: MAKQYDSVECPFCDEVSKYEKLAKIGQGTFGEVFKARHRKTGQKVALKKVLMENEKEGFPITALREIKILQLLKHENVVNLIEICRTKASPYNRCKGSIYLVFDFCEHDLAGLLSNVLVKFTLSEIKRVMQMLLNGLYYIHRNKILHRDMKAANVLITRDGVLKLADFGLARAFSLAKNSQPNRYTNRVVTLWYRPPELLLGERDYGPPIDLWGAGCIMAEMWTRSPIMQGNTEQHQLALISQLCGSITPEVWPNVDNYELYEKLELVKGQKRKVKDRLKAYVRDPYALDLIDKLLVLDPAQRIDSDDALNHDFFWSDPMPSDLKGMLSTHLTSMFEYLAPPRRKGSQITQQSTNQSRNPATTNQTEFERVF
# Structures can show the parent of a compound that is named as a salt. This is one part of the list. The calls rarely recur for the same compound in another form.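 Kinases, fused to nanoluciferase, were expressed in K562 cells; luminescence was measured every 4 h from 2 to 18 h as percent of control (DMSO = 100%, positive control = 0%). A time point is decreased if signal falls significantly (2 sigma). Hits were called by the authors by a rule that is not shown; the count of time points alone does not decide it.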
# Key:
# Settings in all cases: K562; 2-18 h
# ROR2 = ROR2 (UniProt Q01974); assay: number of time points (of 5) at which kinase-Nluc abundance scored as decreased, DMSO-normalised (count); higher = more persistent destabilization
# RPS6KA1 = RPS6KA1 (UniProt Q15418); assay: as above
# SPHK1 = SPHK1 (UniProt Q9NYA1); assay: as above
# SRC = SRC (UniProt P12931); assay: as above
# STK24 = STK24 (UniProt Q9Y6E0); assay: as above
# STK38 = STK38 (UniProt Q15208); assay: as above
# SYK = SYK (UniProt P43405); assay: as above
# TEC = TEC (UniProt P42680); assay: as above
# TYK2 = TYK2 (UniProt P29597); assay: as above
# ULK3 = ULK3 (UniProt Q6PHR2); assay: as above
# YES1 = YES1 (UniProt P07947); assay: as above
# ZAK = ZAK (UniProt Q9NYL2); assay: as above
# ZAP70 = ZAP70 (UniProt P43403); assay: as above
# CDK4 = CDK4 (UniProt P11802); assay: number of time points (of 4; 2 h point missing) at which kinase-Nluc abundance scored as decreased, DMSO-normalised (count); higher = more persistent destabilization
# CDK7 = CDK7 (UniProt P50613); assay: as above
# CDK9 = CDK9 (UniProt P50750); assay: as above
Structure (SMILES),number of time points (ROR2),number of time points (RPS6KA1),number of time points (SPHK1),number of time points (SRC),number of time points (STK24),number of time points (STK38),number of time points (SYK),number of time points (TEC),number of time points (TYK2),number of time points (ULK3),number of time points (YES1),number of time points (ZAK),number of time points (ZAP70),number of time points (CDK4),number of time points (CDK7),number of time points (CDK9)
Cc1ccccc1-n1c([C@H](C)Nc2nc(N)nc3nc[nH]c23)nc2cccc(C)c2c1=O [CAL-130 (Hydrochloride)] (10 µM),0,0,0,0,0,0,0,0,0,0,0,0,0,0,0,0
COCCNc1nc2ccc(C#CC3(O)CCCCC3)cc2n1-c1ccnc(N)n1 (10 µM),0,0,0,0,0,0,0,0,0,0,0,0,0,0,0,0
CCOC(=O)N1CCN(C(=O)[C@H](Cc2cccc(C(=N)N)c2)NS(=O)(=O)c2c(C(C)C)cc(C(C)C)cc2C(C)C)CC1 (10 µM),0,0,0,0,0,0,0,0,0,0,0,0,0,0,0,0
CN(C)CCCOc1ccc(-c2ccc3ncc4c(c3c2)n(C2CCOCC2)c(=O)n4C)cn1 (2 µM),0,0,0,0,0,0,0,0,0,0,0,0,0,0,0,0
CC(C)(C)c1cc(O)ccc1O (10 µM),0,0,0,0,0,0,0,0,0,0,0,0,0,0,0,0
CNC(=O)c1ccc(C)c(-n2c(C)cc(OCc3ccc(F)cc3F)c(Br)c2=O)c1 (10 µM),0,0,0,0,0,0,0,0,0,0,0,0,0,0,0,0
Nc1cc(C(F)(F)F)c(-c2cc(N3CCOCC3)nc(N3CCOCC3)n2)cn1 [Buparlisib (Hydrochloride)] (2.5 µM),1,0,0,0,0,0,0,0,2,0,0,0,0,0,0,0
Oc1ccc(Nc2nc(-c3ccc(Cl)cc3)cs2)cc1 (10 µM),0,0,0,0,0,0,0,0,0,0,0,0,0,0,0,0
C[C@@]1(c2ncncc2F)NC(=O)c2cc(-c3cn[nH]c3)ccc21 (10 µM),0,0,0,0,0,0,0,0,0,0,0,0,0,0,0,0
O=c1cc(CN2CCOCC2)occ1OCCCCCSc1ccnc2cc(C(F)(F)F)ccc12 (10 µM),0,0,0,0,0,0,0,0,0,0,0,0,0,0,0,0
Cc1cc(CN2CCN(c3c(Br)cnc4nc(-c5ccc(N6CCN(C)CC6)cc5)[nH]c34)CC2)no1 (2.5 µM),0,0,0,0,0,0,0,0,0,0,0,0,0,0,0,0
CN1CCN(c2cccc(Nc3nc4c(-c5ccc(S(C)(=O)=O)cc5)cccn4n3)c2)CC1 (10 µM),0,0,0,0,0,0,0,0,0,0,0,0,0,0,0,0
Cc1ccc(OCCSc2ncccn2)c(Br)c1 [ZLN024 (hydrochloride)] (10 µM),0,0,0,0,0,0,0,0,0,0,0,0,0,0,0,0
C=CC(=O)Nc1ccc(CN2C(=O)N(c3cc(OC)cc(OC)c3)Cc3cnc(Nc4ccc(N5CCN(C)CC5)cc4)nc32)cc1 (2.5 µM),0,0,3,0,0,0,0,0,0,0,0,0,0,0,0,0
Cn1nccc1Nc1nccc(-c2ccn([C@H](CO)c3ccc(Cl)c(F)c3)c(=O)c2)n1 [Ravoxertinib hydrochloride] (10 µM),0,0,0,0,0,0,0,0,0,0,0,0,0,0,0,0
C=CC(=O)Nc1cc(Nc2ncc(Cl)c(-c3c[nH]c4ccccc34)n2)c(OC)cc1N(C)CCN(C)C [Mutant EGFR inhibitor] (2.5 µM),0,0,0,0,0,0,0,0,1,4,0,1,0,0,3,0
COc1cc2nccc(Oc3ccc(NC(=O)NC4CC4)c(Cl)c3)c2cc1C(N)=O [Lenvatinib (mesylate)] (10 µM),0,0,0,0,0,0,0,1,3,3,1,1,0,0,2,1
COc1cc2nccc(Oc3ccc(NC(=O)NC4CC4)c(Cl)c3)c2cc1C(N)=O [Lenvatinib] (10 µM),0,0,2,0,0,0,0,0,3,0,0,0,0,0,3,0
CNC(=O)c1cc(COc2nnc(Nc3ccc(Cl)cc3)c3ccoc23)ccn1 [Telatinib] (10 µM),0,0,0,0,0,0,0,0,0,0,0,0,0,0,0,0
O=C(NCCN1CCOCC1)c1cc2c(Oc3ccc(NC(=O)C4(C(=O)Nc5ccc(F)cc5)CC4)cc3)ccnc2[nH]1 [Tyrosine kinase inhibitor] (10 µM),0,0,0,0,0,0,0,0,0,0,0,0,0,0,0,0
COc1cc(Nc2ncc(F)c(Nc3ccc4c(n3)N(COP(=O)(O)O)C(=O)C(C)(C)O4)n2)cc(OC)c1OC [Fostamatinib Disodium] (10 µM),0,0,0,0,0,0,0,0,2,0,0,0,0,0,1,0
CCNc1nc(Nc2cc(F)c(C(=O)N3CCOCC3)cc2OC)ncc1C(F)(F)F [GNE-7915 (tosylate)] (10 µM),0,0,0,0,0,0,0,0,0,0,0,0,0,0,0,0
O=C1Nc2ccc(C(=O)c3ccco3)cc2C1=Cc1cc(Cl)c(O)c(Cl)c1 (2.5 µM),0,0,0,0,0,0,0,0,0,0,0,0,0,0,0,0
COc1cc(OC2CCN(C)CC2)ccc1Nc1ncc2c(n1)n(C1CCCC1)c(=O)n2C (10 µM),0,0,0,0,0,0,0,0,0,0,0,0,0,0,0,0
O=S(=O)(NCCCN1c2ccccc2CCc2ccc(Cl)cc21)c1ccc(OC(F)(F)F)cc1 (2.5 µM),0,0,0,0,0,0,0,0,0,0,0,0,0,0,0,0
C[C@@H]1CC[C@@H](Nc2nc(NC(C)(C)C)ncc2C(N)=O)C[C@H]1O (10 µM),0,0,0,0,0,0,0,0,0,0,0,0,0,0,0,0
O=C1NC(=O)/C(=C/c2ccc3nccnc3c2)S1 (10 µM),0,0,0,0,0,0,0,0,0,0,0,0,0,0,0,0
CC#CC(=O)N1CC[C@@H](n2c(=O)n(-c3ccc(Oc4ccccc4)cc3)c3c(N)ncnc32)C1 [Tirabrutinib (hydrochloride)] (10 µM),0,0,0,0,0,0,0,0,0,0,0,0,0,0,0,0

# Record cards (already shown). Order of values: number of time points (ROR2)	number of time points (RPS6KA1)	number of time points (SPHK1)	number of time points (SRC)	number of time points (STK24)	number of time points (STK38)	number of time points (SYK)	number of time points (TEC)	number of time points (TYK2)	number of time points (ULK3)	number of time points (YES1)	number of time points (ZAK)	number of time points (ZAP70)	number of time points (CDK4)	number of time points (CDK7)	number of time points (CDK9)
# O=C1Nc2ccc(C(=O)c3ccco3)cc2C1=Cc1cc(Cl)c(O)c(Cl)c1 (2.5 µM) as listed: 0	0	0	0	0	0	0	0	0	0	0	0	0	0	0	0
# C[C@@]1(c2ncncc2F)NC(=O)c2cc(-c3cn[nH]c3)ccc21 (10 µM) as listed: 0	0	0	0	0	0	0	0	0	0	0	0	0	0	0	0
